Record: PubChem BioAssay AID1259405 (NCATS, 2018)

- Screen: 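Silenced genes that increase secreted GFP made by CHO cells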 (primary screen)
- System: Chinese hamster CHO-K1 ovary cells with stable secreted eGFP expression
- Knock-down reagent: single siRNA against mouse genes, 0.8 pmol siRNA per well (2 µl of 400 nM stock)
- Time to read-out: 3 days
- Read-out: 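Percent of the per-plate non-targeting control median for intracellular GFP per well by laser scanning cytometry and for cell viability by ATP luminescence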
- Scale: GFP, % of control: higher = more GFP per well, higher productivity; viability (ATP), % of control: higher = more viable cells (more ATP)
- Hit rule: 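a knock-down is called active if GFP reaches 120% or more of non-targeting control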
The deposit covers about 50,000 reagents; this is a random part of them. About 4,000 of them (8%) were called active. 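Mouse siRNA library applied to hamster cells; one well for each siRNA.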 The numbers tell different reagents against one gene apart.

Gene	reagent no.	GFP, % of control	viability (ATP), % of control	Outcome
Hcar1 (hydrocarboxylic acid receptor 1)	1	132	62.3	active
Hcar1 (hydrocarboxylic acid receptor 1)	2	67	59.1	inactive
Hcar1 (hydrocarboxylic acid receptor 1)	3	101	61.3	inactive
Rab33b (RAB33B, member RAS oncogene family)	1	45.6	48.7	inactive
Rab33b (RAB33B, member RAS oncogene family)	2	82.4	66.2	inactive
Rab33b (RAB33B, member RAS oncogene family)	3	81.6	76.2	inactive
Pdpn (podoplanin)	1	74.7	89	inactive
Pdpn (podoplanin)	2	36.8	30.2	inactive
Pdpn (podoplanin)	3	85.8	87.9	inactive
Clnk (cytokine-dependent hematopoietic cell linker)	1	77.8	61.5	inactive
Clnk (cytokine-dependent hematopoietic cell linker)	2	78.1	60.6	inactive
Clnk (cytokine-dependent hematopoietic cell linker)	3	78.3	44.5	inactive
Reg4 (regenerating islet-derived family, member 4)	1	34.8	49	inactive
Reg4 (regenerating islet-derived family, member 4)	2	92.4	55.8	inactive
Reg4 (regenerating islet-derived family, member 4)	3	40	73.7	inactive
Mbl1 (mannose-binding lectin (protein A) 1)	1	130	126	active
Mbl1 (mannose-binding lectin (protein A) 1)	2	92.1	48.3	inactive
B4galt6	1	71	65.8	inactive
B4galt6	2	114	141	inactive
B4galt6	3	80	92.2	inactive

Laid out differently: results already given.
{"Gene": "Hcar1 (hydrocarboxylic acid receptor 1)", "reagent no.": 2, "GFP, % of control": 67, "viability (ATP), % of control": 59.1, "Outcome": "inactive"}
{"Gene": "Hcar1 (hydrocarboxylic acid receptor 1)", "reagent no.": 3, "GFP, % of control": 101, "viability (ATP), % of control": 61.3, "Outcome": "inactive"}
{"Gene": "Rab33b (RAB33B, member RAS oncogene family)", "reagent no.": 1, "GFP, % of control": 45.6, "viability (ATP), % of control": 48.7, "Outcome": "inactive"}
{"Gene": "Rab33b (RAB33B, member RAS oncogene family)", "reagent no.": 2, "GFP, % of control": 82.4, "viability (ATP), % of control": 66.2, "Outcome": "inactive"}

Further records follow.
Gene	reagent no.	GFP, % of control	viability (ATP), % of control	Outcome
Tax1bp1 (Tax1 (human T cell leukemia virus type I) binding protein 1)	1	32.5	35.6	inactive
Tax1bp1 (Tax1 (human T cell leukemia virus type I) binding protein 1)	2	43	31.4	inactive
Tax1bp1 (Tax1 (human T cell leukemia virus type I) binding protein 1)	3	63.6	56.1	inactive
BC061237 (cDNA sequence BC061237)	1	112	54.4	inactive
BC061237 (cDNA sequence BC061237)	2	81.4	92.5	inactive
BC061237 (cDNA sequence BC061237)	3	92.5	108	inactive
Bclaf1 (BCL2-associated transcription factor 1)	1	57.6	56.3	inactive
Bclaf1 (BCL2-associated transcription factor 1)	2	54.1	71.5	inactive
Bclaf1 (BCL2-associated transcription factor 1)	3	92.7	130	inactive
Lgals9 (lectin, galactose binding, soluble 9)	1	49.7	61.4	inactive
Lgals9 (lectin, galactose binding, soluble 9)	2	59.1	34.3	inactive
Lgals9 (lectin, galactose binding, soluble 9)	3	62.8	62.2	inactive
Otud5 (OTU domain containing 5)	1	91.5	83.2	inactive
Otud5 (OTU domain containing 5)	2	138	60.1	active
Otud5 (OTU domain containing 5)	3	80.7	72	inactive
Zbtb43 (zinc finger and BTB domain containing 43)	1	88.8	67	inactive
Zbtb43 (zinc finger and BTB domain containing 43)	2	66.9	64.2	inactive
Zbtb43 (zinc finger and BTB domain containing 43)	3	59.3	90.4	inactive
Or2y7 (olfactory receptor family 2 subfamily Y member 7)	1	54.2	82.7	inactive
Or2y7 (olfactory receptor family 2 subfamily Y member 7)	2	59.4	73.5	inactive
Or2y7 (olfactory receptor family 2 subfamily Y member 7)	3	62.2	91.7	inactive
Zfp667 (zinc finger protein 667)	1	44.1	50	inactive
Zfp667 (zinc finger protein 667)	2	92.6	94.7	inactive
Serpinb9e (serine (or cysteine) peptidase inhibitor, clade B, member 9e)	1	66.3	81.9	inactive
Serpinb9e (serine (or cysteine) peptidase inhibitor, clade B, member 9e)	2	66.4	74.7	inactive
Serpinb9e (serine (or cysteine) peptidase inhibitor, clade B, member 9e)	3	130	110	active
Dck (deoxycytidine kinase)	1	113	99.8	inactive
Pigl (phosphatidylinositol glycan anchor biosynthesis, class L)	1	50.2	51.9	inactive
Pigl (phosphatidylinositol glycan anchor biosynthesis, class L)	2	131	109	active
Tm9sf2 (transmembrane 9 superfamily member 2)	1	91.4	72	inactive
Tm9sf2 (transmembrane 9 superfamily member 2)	2	83.2	74.2	inactive
Tm9sf2 (transmembrane 9 superfamily member 2)	3	94.1	80.6	inactive
Zfp553 (zinc finger protein 553)	1	90.4	69.5	inactive
Zfp553 (zinc finger protein 553)	2	77	78.3	inactive
Zfp553 (zinc finger protein 553)	3	118	82.3	inactive
Mpv17l (Mpv17 transgene, kidney disease mutant-like)	1	78.5	63.7	inactive
Mpv17l (Mpv17 transgene, kidney disease mutant-like)	2	58.7	73.6	inactive
Mpv17l (Mpv17 transgene, kidney disease mutant-like)	3	52.6	68.2	inactive
